# Data reported in doi:10.1101/323170.
# Amino acid sequences for entries named in this document (tags omitted).
# UniProt Q9VYG2: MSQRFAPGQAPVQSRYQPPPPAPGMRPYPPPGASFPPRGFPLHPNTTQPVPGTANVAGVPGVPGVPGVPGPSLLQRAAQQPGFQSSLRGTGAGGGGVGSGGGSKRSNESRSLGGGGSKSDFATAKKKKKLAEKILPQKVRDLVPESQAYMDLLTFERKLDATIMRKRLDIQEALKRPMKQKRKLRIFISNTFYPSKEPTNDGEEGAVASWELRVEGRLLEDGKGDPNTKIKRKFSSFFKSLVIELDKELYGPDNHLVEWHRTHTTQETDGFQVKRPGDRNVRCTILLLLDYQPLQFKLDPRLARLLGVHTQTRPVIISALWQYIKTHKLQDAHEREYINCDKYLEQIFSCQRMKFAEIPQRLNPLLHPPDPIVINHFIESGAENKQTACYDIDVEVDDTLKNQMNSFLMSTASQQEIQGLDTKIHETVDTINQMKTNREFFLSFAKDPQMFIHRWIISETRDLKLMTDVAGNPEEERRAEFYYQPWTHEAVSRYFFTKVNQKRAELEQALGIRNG
# UniProt P51592: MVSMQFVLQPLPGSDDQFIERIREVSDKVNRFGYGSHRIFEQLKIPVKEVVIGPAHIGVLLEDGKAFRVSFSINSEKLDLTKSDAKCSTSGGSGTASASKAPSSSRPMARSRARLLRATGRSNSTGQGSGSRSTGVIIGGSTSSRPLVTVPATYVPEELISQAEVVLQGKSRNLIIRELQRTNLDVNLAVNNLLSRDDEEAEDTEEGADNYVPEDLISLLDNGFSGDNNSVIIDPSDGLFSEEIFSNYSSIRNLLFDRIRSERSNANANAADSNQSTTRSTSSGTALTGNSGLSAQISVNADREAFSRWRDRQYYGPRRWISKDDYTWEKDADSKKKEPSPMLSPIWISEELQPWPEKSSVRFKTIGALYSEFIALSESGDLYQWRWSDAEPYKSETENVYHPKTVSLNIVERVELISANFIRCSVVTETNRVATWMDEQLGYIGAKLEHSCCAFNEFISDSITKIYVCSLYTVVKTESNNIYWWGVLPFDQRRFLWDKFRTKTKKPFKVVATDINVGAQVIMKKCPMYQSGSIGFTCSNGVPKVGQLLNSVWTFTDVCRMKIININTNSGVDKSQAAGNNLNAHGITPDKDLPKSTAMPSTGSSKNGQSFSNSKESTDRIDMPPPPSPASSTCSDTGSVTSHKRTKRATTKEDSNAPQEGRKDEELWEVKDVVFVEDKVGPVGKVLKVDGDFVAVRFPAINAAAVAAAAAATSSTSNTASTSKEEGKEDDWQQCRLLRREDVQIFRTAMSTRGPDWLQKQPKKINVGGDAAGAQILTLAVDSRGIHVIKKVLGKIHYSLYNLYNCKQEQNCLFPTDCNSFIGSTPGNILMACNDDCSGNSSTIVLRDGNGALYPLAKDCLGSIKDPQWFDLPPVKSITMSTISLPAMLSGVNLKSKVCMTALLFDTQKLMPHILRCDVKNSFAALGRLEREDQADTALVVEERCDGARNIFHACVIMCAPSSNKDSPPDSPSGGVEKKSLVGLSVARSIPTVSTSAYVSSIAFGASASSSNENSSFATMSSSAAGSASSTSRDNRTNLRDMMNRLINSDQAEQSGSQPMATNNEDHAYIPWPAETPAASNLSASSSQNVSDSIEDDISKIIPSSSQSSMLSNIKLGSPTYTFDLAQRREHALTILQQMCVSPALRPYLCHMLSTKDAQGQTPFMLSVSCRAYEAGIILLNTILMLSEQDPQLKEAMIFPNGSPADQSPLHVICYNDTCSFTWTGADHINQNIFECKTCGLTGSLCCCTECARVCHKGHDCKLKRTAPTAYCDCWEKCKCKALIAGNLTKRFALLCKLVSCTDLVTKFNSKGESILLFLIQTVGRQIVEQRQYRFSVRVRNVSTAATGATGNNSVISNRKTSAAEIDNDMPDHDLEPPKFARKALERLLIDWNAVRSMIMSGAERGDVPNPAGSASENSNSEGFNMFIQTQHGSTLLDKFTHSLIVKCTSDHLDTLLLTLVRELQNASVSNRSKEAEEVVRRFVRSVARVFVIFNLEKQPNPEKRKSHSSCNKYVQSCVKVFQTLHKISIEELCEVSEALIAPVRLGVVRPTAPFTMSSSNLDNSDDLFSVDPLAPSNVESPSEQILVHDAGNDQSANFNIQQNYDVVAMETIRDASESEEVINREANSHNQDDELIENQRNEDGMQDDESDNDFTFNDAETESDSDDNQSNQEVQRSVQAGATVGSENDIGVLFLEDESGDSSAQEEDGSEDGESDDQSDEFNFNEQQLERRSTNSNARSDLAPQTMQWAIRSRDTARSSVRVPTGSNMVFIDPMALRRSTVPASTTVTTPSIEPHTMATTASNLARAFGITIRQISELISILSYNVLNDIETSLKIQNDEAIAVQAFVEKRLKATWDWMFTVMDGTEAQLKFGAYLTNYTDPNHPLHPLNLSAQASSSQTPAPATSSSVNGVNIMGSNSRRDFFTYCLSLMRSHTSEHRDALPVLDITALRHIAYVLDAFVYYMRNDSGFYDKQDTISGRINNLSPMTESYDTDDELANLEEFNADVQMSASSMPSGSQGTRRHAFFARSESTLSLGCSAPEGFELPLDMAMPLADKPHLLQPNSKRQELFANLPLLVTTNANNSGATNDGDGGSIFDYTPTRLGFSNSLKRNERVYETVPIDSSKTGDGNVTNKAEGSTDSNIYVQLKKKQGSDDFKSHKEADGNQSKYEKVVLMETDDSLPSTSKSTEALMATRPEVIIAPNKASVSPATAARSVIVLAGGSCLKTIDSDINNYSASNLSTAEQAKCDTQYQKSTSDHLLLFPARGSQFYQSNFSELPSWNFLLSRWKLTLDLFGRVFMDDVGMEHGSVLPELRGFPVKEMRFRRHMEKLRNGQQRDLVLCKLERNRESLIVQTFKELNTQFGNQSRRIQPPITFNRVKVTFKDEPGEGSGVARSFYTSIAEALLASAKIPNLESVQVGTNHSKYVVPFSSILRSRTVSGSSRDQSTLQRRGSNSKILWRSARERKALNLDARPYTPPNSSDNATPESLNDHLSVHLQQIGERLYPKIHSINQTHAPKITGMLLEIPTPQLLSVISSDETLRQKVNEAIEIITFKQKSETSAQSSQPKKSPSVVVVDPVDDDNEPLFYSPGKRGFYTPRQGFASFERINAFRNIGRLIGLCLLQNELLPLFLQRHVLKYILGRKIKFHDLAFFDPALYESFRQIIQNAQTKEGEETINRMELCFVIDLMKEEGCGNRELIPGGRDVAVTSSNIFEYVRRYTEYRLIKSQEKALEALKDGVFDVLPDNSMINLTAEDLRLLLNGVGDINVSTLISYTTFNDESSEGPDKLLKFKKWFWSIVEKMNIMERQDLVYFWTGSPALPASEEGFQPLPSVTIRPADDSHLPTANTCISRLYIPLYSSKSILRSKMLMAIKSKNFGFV
# Read-outs that look alike come from different tables or passages of the source. No constants are given. Whether binding was seen depends on the method and setting. Binding seen in cells or lysates may run through a third protein. Some binding calls cover weakened binding; strength is not graded here. Where a sequence is shown, tags or fusion partners need not be part of it.
# B1: IAP2-HA (E3-ubiquitin ligase IAP2, HA-tagged) (enzyme, UniProt Q24307 1-498)
# chain: MTELGMELESVRLATFGEWPLNAPVSAEDLVANGFFATGNWLEAECHFCHVRIDRWEYGDQVAERHRRSSPICSMVLAPNHCGNVPRSQESDNEGNSVVDSPESCSCPDLLLEANRLVTFKDWPNPNITPQALAKAGFYYLNRLDHVKCVWCNGVIAKWEKNDNAFEEHKRFFPQCPRVQMGPLIEFATGKNLDELGIQPTTLPLRPKYACVDARLRTFTDWPISNIQPASALAQAGLYYQKIGDQVRCFHCNIGLRSWQKEDEPWFEHAKWSPKCQFVLLAKGPAYVSEVLATTAANASSQPATAPAPTLQADVLMDEAPAKEALALGIDGGVVRNAIQRKLLSSGCAFSTLDELLHDIFDDAGAGAALEVREPPEPSAPFIEPCQATTSKAASVPIPVADSIPAKPQAAEAVANISKITDEIQKMSVATPNGNLSLEEENRQLKDARLCKVCLDEEVGVVFLPCGHLATCNQCAPSVANCPMCRADIKGFVRTFLS
# Tests used:
# Experiment in all cases: co-IP
# [1] = biological target: T1, Akirin-V5 (tagged version of Akirin) (Drosophila) (UniProt Q9VS59)
# T1 sequence: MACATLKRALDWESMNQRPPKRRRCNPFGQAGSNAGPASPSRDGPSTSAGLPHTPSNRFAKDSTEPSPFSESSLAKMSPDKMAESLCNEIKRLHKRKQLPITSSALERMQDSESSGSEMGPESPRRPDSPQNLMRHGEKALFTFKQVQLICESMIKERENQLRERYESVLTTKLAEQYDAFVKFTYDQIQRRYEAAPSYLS
# [2] = biological target: T2, Akirin (untagged) (Drosophila) (UniProt Q9VS59)
# T2 sequence: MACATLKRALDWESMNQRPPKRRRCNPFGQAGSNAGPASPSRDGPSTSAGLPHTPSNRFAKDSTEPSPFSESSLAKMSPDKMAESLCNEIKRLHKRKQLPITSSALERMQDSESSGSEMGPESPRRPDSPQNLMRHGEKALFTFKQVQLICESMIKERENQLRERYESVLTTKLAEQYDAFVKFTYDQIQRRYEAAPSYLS
# [3] = biological target: T1, Akirin-V5 (tagged version of Akirin) (Drosophila); remark: listed apart in the source
molecule,measurement,setting,value
"BAP60-HA (core member of the SWI/SNF chromatin-remodeling complex, HA-tagged) (from UniProt Q9VYG2 1-515)",binding,[1],binds
"V5-tagged Hyd (Hyperplastic Discs, HECT E3 ubiquitin ligase) (from UniProt P51592 1-2885) (enzyme)",binding,[2],binds
B1,binding,[3],no binding
